This data set is described as follows: general procedure: solution-phase peptide synthesis; HATU/DIPEA. The note with it: TFA salt; for step yield: late stage modification step.

In the case of “2-(2-{2-[2-(Cyclooct-2-yn-1-yloxy)acetamido]acetamido}acetamido)-N-({[(10S,23S)-10-ethyl-18-fluoro-10-hydroxy-19-methyl-5,9-dioxo-8-oxa-4,15-diazahexacyclo[14.7.1.0^2,^14.0^4,^13.0^6,^11.0^20,^24]tetracosa-1,6(11),12,14,16,18,20(24)-heptaen-23-yl]carbamoyl}methyl)acetamide”, the conjugation yield (conjugation step) amounted to 39%. For “2-[2-(2-{2-[2-(Cyclooct-2-yn-1-yloxy)acetamido]acetamido} acetamido)acetamido]acetic acid”, the step yield stood at 15%. On the same count and under the same terms, the value for “(2S)-2-(2-{2-[2-(Cyclooct-2-yn-1-yloxy)acetamido]acetamido}acetamido)-N-[({[(19S)-19-ethyl-19-hydroxy-7-methoxy-14,18-dioxo-17-oxa-3,13-diazapentacyclo[11.8.0.0^2,^11.0^4,^9.0^15,^20]henicosa-1(21),2,4,6,8,10,15(20)-heptaen-10-yl]methyl}carbamoyl)methyl]-3-phenylpropanamide” was 5%. Regarding “(2S)-2-[2-(2-Aminoacetamido)acetamido]-N-[({[(19S)-19-ethyl-19-hydroxy-7-methoxy-14,18-dioxo-17-oxa-3,13-diazapentacyclo[11.8.0.0^2,^11.0^4,^9.0^15,^20]henicosa-1(21),2,4,6,8,10,15(20)-heptaen-10-yl]methyl}carbamoyl)methyl]-3-phenylpropanamide”, for the setting “coupling step, LCMS”, the “crude LC-MS purity” value is 68% purity in LCMS.

The values above are taken from patent publication US20230287138A1 (Regneron Pharmaceuticals, Inc., priority 2022, published 2023).
